Source: PubChem BioAssay AID1259424 (University of Nebraska Medical Center, 2018)
Screen: 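Find knockdowns that reproduce the expression shifts seen after KSR1 loss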 (primary screen). System: human HCT116 colon cancer cells. Reagents: siRNA pool against human genes, 50 nM. Detection: 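Six signature mRNAs by branched-DNA multiplex assay, scaled to two housekeeping genes and non-targeting median, log2; matched to mean KSR1 knockdown profile by Pearson correlation and euclidean distance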. Reading the numbers: mean correlation with KSR1 profile and KSR1 correlation: higher = expression change more like KSR1 knockdown; mean distance from KSR1 profile: higher = expression change less like KSR1 knockdown.
Here is an unselected part of about 14,000 reagents tested. 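Higher correlation or smaller distance means closer resemblance to KSR1 loss; control wells, including KSR1 knockdowns, recur on many plates.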 The numbers tell different reagents against one gene apart. Reagent sequences are not shown. Not given: the time to read-out.

| Gene | reagent no. | mean correlation with KSR1 profile | mean distance from KSR1 profile | KSR1 correlation, replicate 1 | KSR1 correlation, replicate 2 | KSR1 correlation, replicate 3 |
| --- | --- | --- | --- | --- | --- | --- |
| TMX4 | 1 | 0.28 | 0.828 | 0.257 | 0.123 | 0.411 |
| MAN2A2 | 1 | -0.637 | 1.76 | -0.687 | -0.87 | -0.36 |
| GPATCH8 | 1 | -0.373 | 2.43 | -0.408 | -0.226 | -0.378 |
| NAB2 | 1 | 0.452 | 1.19 | 0.59 | 0.32 | 0.198 |
| ALPK3 | 1 | 0.299 | 1.57 | 0.398 | 0.661 | -0.155 |
| ZNF148 | 1 | 0.206 | 2.33 | 0.452 | 0.237 | 0.296 |
| TFPT | 1 | -0.719 | 3.47 | -0.678 | -0.67 | -0.837 |
| SLC15A2 | 1 | 0.414 | 0.946 | 0.83 | 0.0217 | 0.325 |
| SLC4A5 | 1 | -0.514 | 3.67 | -0.543 | -0.295 | -0.335 |
| NUDT12 | 1 | 0.479 | 1.94 | 0.401 | 0.368 | 0.377 |
| FAM20C | 1 | -0.661 | 2.31 | -0.584 | -0.493 | -0.427 |
| JPH3 | 1 | 0.422 | 1.17 | 0.356 | 0.253 | 0.362 |
| CCDC33 | 1 | 0.234 | 1.49 | 0.179 | 0.152 | -0.121 |
| GNA15 | 1 | 0.622 | 1.52 | 0.568 | 0.667 | 0.579 |
| CFHR4 | 1 | -0.407 | 2.03 | -0.183 | -0.591 | -0.116 |
| THAP7 | 1 | -0.264 | 3.47 | -0.476 | -0.272 | -0.287 |
| HIF1A | 1 | 0.645 | 0.847 | 0.575 | 0.413 | 0.388 |
| OPTC | 1 | -0.679 | 3.05 | -0.517 | -0.801 | -0.576 |
| GAST | 1 | -0.572 | 1.38 | -0.749 | -0.561 | -0.402 |
| LHX9 | 1 | -0.442 | 1.95 | -0.444 | -0.251 | 0.124 |
| SAP30L | 1 | -0.559 | 5.02 | -0.626 | -0.69 | -0.569 |
| ZNF225 | 1 | 0.517 | 1.29 | -0.151 | 0.479 | 0.41 |
| N4BP2L1 | 1 | 0.104 | 1.27 | 0.195 | 0.00884 | 0.0308 |
| KIRREL2 | 1 | 0.789 | 1.4 | 0.702 | 0.618 | 0.793 |
| ICMT | 1 | -0.42 | 1.91 | -0.478 | -0.35 | -0.403 |
| SOX4 | 1 | 0.524 | 2.28 | 0.5 | 0.522 | 0.538 |
| ATP5ME | 1 | -0.0248 | 2.24 | 0.219 | -0.0429 | -0.189 |
| MBNL1 | 1 | -0.52 | 2.8 | -0.575 | -0.387 | -0.526 |
| TSKS | 1 | -0.347 | 1.75 | 0.106 | -0.534 | -0.78 |
| SLCO1B3 | 1 | 0.415 | 1.03 | 0.0988 | 0.179 | 0.0793 |
| CNNM1 | 1 | -0.418 | 3.97 | -0.499 | -0.43 | -0.384 |
| PSTPIP1 | 1 | 0.0987 | 2.56 | 0.2 | -0.058 | -0.0433 |
| COX15 | 1 | 0.178 | 3 | 0.019 | 0.359 | 0.304 |
| MYCL | 1 | -0.46 | 2.44 | -0.132 | -0.259 | -0.5 |
| PLEK2 | 1 | -0.383 | 2.49 | -0.584 | -0.456 | -0.342 |
| CACNB2 | 1 | 0.281 | 1.92 | 0.359 | 0.144 | 0.196 |
| UBE2O | 1 | -0.336 | 3.46 | -0.279 | -0.133 | -0.326 |
| ERCC2 | 1 | -0.61 | 2.16 | -0.51 | -0.687 | -0.685 |
| POPDC3 | 1 | 0.397 | 2.71 | 0.441 | -0.0717 | 0.345 |
| RNASEH2B | 1 | 0.408 | 1.59 | 0.518 | 0.502 | 0.368 |
| CDC6 | 1 | 0.396 | 2.55 | 0.326 | 0.536 | 0.214 |
| NTNG2 | 1 | 0.906 | 0.705 | 0.833 | 0.862 | 0.812 |
| TRIM58 | 1 | -0.502 | 3.44 | -0.417 | -0.499 | -0.572 |
| DYNC2H1 | 1 | 0.648 | 1.39 | 0.515 | 0.764 | 0.581 |
| TRAF2 | 1 | 0.604 | 2.65 | 0.632 | 0.478 | 0.7 |
| HEATR3 | 1 | -0.816 | 2.94 | -0.879 | -0.744 | -0.624 |
| SULT1E1 | 1 | 0.291 | 1.15 | 0.121 | 0.293 | 0.391 |
| DLGAP4 | 1 | -0.738 | 2.49 | -0.593 | -0.734 | -0.806 |
| NSD2 | 1 | 0.301 | 1.76 | 0.276 | 0.252 | 0.229 |
| SMG5 | 1 | -0.372 | 2.29 | -0.106 | -0.341 | -0.424 |
| SFRP2 | 1 | 0.394 | 4.92 | 0.32 | 0.445 | 0.354 |
| AARSD1 | 1 | 0.359 | 2.24 | 0.191 | 0.373 | 0.398 |
| PCDHGA12 | 1 | 0.316 | 1.88 | 0.419 | 0.394 | 0.136 |
| PLA2G2D | 1 | 0.552 | 1.57 | 0.4 | 0.542 | 0.553 |
| PFKP | 1 | -0.368 | 3.06 | -0.106 | -0.556 | -0.353 |
| IFI44 | 1 | -0.516 | 2.42 | -0.622 | -0.727 | -0.584 |
| CTR9 | 1 | -0.888 | 2.58 | -0.862 | -0.933 | -0.721 |
| GAL3ST2 | 1 | -0.434 | 4.76 | -0.245 | -0.423 | -0.557 |
| CEP290 | 1 | 0.631 | 1.45 | 0.551 | 0.597 | 0.681 |
| CEP290 | 2 | -0.351 | 2.7 | -0.316 | -0.257 | -0.347 |
| EXTL2 | 1 | -0.139 | 1.57 | -0.242 | 0.272 | -0.134 |
| SEC23A | 1 | -0.196 | 2.57 | -0.115 | -0.252 | -0.208 |
| SREBF1 | 1 | 0.582 | 1.43 | 0.675 | 0.77 | 0.502 |

Individual results from above:
Entry of ICMT under “KSR1 correlation, replicate 1”: -0.478
For “KSR1 correlation, replicate 1”, SOX4 is entered as 0.5
Value of ATP5ME in “mean correlation with KSR1 profile”: -0.0248
For “mean correlation with KSR1 profile”, TRIM58 is entered as -0.502
CCDC33, mean distance from KSR1 profile = 1.49
